The nature of this data set: general procedure: hybrid (solid and solution phase) peptide synthesis; 2-chlorotrityl chloride resin (ChemPep, 1 mmol/g); EDCl, HOAt, DIPEA (solution couplings).
Where [1] appears, read: late stage modification step, TFA salt.
[2] abbreviates: late stage modification step, Waters ACQUITY UPLC, reverse-phase SunFire C18 5 um 4.6x150 mm, 0.1% TFA water/CH3CN, TFA salt.
The mark [3] stands for this setting: whole synthesis, over 4 steps, scale of the general procedure 0.1 mmol, TFA salt.
The mark [4] stands for this setting: whole synthesis, Waters ACQUITY UPLC, reverse-phase SunFire C18 5 um 4.6x150 mm, 0.1% TFA water/CH3CN, scale of the general procedure 0.1 mmol, TFA salt.
Where [5] appears, read: whole synthesis, over 4 steps, scale of the general procedure 0.1 mmol, CF3COOH salt.
Setting [6] is: whole synthesis, over 4 steps from resin 24, scale of the general procedure 0.1 mmol, TFA salt.

On to “(9H-fluoren-9-yl)methyl ((6R,9S,12S,15R)-9-ethyl-15-methyl-5,8,11,14-tetraoxo-12-(3-(3-((2,2,4,6,7-pentamethyl-2,3-dihydrobenzofuran-5-yl)sulfonyl)guanidino)propyl)-6-phenyl-4,7,10,13-tetraazaoctadeca-1,17-dien-15-yl)carbamate”, for which the step yield (coupling step, TFA salt) is 60% yield.
On to “(R)—N-((6S,9S,12R)-12-(4-chlorophenyl)-9-ethyl-1-imino-14-methyl-7,10,13-trioxo-1-(2,2,4,6,7-pentamethyl-2,3-dihydrobenzofuran-5-sulfonamido)-2,8,11,14-tetraazaheptadec-16-en-6-yl)-2-isobutyramido-2-methylpent-4-enamide”, for which the step yield (coupling step, TFA salt) is given as 76% yield.
For the substance “N-((3R,6S,9S,12R)-3-(cyclohexylmethyl)-9-(3-(3,3-dimethylguanidino)propyl)-6-ethyl-12-methyl-2,5,8,11-tetraoxo-1,4,7,10-tetraazacyclotetradecan-12-yl)isobutyramide”, the “purity (crude or final not stated)” value (Waters ACQUITY UPLC, reverse-phase SunFire C18 5 um 4.6x150 mm, 0.1% TFA water/CH3CN, CF3COOH salt) was more than 98%.
For “N-((3R,6S,9S,12R)-9-(2-((4,5-dihydro-1H-imidazol-2-yl)amino)ethyl)-6-ethyl-12-methyl-2,5,8,11-tetraoxo-3-phenyl-1,4,7,10-tetraazacyclotetradecan-12-yl)isobutyramide”, under setting [1], the step yield came out at 47% yield. The “final purity (method not given)” value under setting [2] is recorded as more than 98% purity.
For the substance “(9H-fluoren-9-yl)methyl ((4R,7S,10S,13R)-10-ethyl-4-methyl-5,8,11,14-tetraoxo-7-(3-(3-((2,2,4,6,7-pentamethyl-2,3-dihydrobenzofuran-5-yl)sulfonyl)guanidino)propyl)-13-phenyl-6,9,12,15-tetraazaicosa-1,19-dien-4-yl)carbamate”, the step yield (coupling step, TFA salt) was 80% yield.
Consider “N-((3R,6S,9S,12R)-6-ethyl-12-methyl-2,5,8,11-tetraoxo-3-phenyl-9-((pyridin-2-ylamino)methyl)-1,4,7,10-tetraazacyclotetradecan-12-yl)isobutyramide”, for which, under setting [1], the step yield is 54% yield. The “final purity (method not given)” value under setting [2] is reported as more than 98% purity.
As to “N-((3R,6S,9S,12R)-6-ethyl-9-(3-guanidinopropyl)-2,5,8,11-tetraoxo-3-phenyl-1,4,7,10-tetraazacyclohexadecan-12-yl)isobutyramide”, the isolated yield under setting [3] worked out at 12.7% yield over 4 steps.
On to “N-((3R,6S,9S,12R)-9-(3-guanidinopropyl)-6-isopropyl-12-methyl-2,5,8,11-tetraoxo-3-phenyl-1,4,7,10-tetraazacyclotetradecan-12-yl)isobutyramide”, for which the isolated mass (whole synthesis, TFA salt) was determined as 11.7 mg. Further, the “final purity (method not given)” value under setting [4] was more than 98%. In addition, under setting [3], the isolated yield is listed as 20%.
“N-((3R,6S,12R)-9-(3-(2-chloroacetamido)propyl)-6-ethyl-12-methyl-2,5,8,11-tetraoxo-3-phenyl-1,4,7,10-tetraazacyclotetradecan-12-yl)isobutyramide”: under setting [1], the step yield was 78%. The “final purity (method not given)” value under setting [2] is more than 98%.
As for “N-((3R,6S,9S,12R)-9-(4-(dimethylamino)butyl)-6-ethyl-12-methyl-2,5,8,11-tetraoxo-3-phenyl-1,4,7,10-tetraazacyclotetradecan-12-yl)isobutyramide”, under setting [1], the step yield was 32% yield. Moreover, under setting [2], the “final purity (method not given)” value was more than 98% purity.
For the substance “N-((3R,6S,9S,12R)-9-(3-(3-cyanoguanidino)propyl)-3-(cyclohexylmethyl)-6-ethyl-12-methyl-2,5,8,11-tetraoxo-1,4,7,10-tetraazacyclotetradecan-12-yl)isobutyramide”, the step yield under setting [1] is 53%. Moreover, the “final purity (method not given)” value under setting [2] was more than 98%.
Regarding “N-((3R,6S,9S,12R)-3-(2-chlorophenyl)-6-ethyl-9-(3-guanidinopropyl)-12-methyl-2,5,8,11-tetraoxo-1,4,7,10-tetraazacyclotetradecan-12-yl)isobutyramide”, under setting [5], the isolated yield worked out at 26%.
Consider “N-((3R,6S,9S,12R)-6-ethyl-9-(3-guanidinopropyl)-12-methyl-2,5,8,11-tetraoxo-3-phenyl-1,4,7,10-tetraazacycloicosan-12-yl)isobutyramide”, for which the cyclisation yield (cyclisation step, over 3 steps from 36d, TFA salt) came to 27% yield over 3 steps.
In the case of “N-((3R,6S,9S,12R)-3-benzyl-6-ethyl-9-(3-guanidinopropyl)-12-methyl-2,5,8,11-tetraoxo-1,4,7,10-tetraazacyclotetradecan-12-yl)isobutyramide”, the isolated yield under setting [5] worked out at 56%.
For “N-((6S,9S,12R)-3-(3-chlorophenyl)-6-ethyl-9-(3-guanidinopropyl)-12-methyl-2,5,8,11-tetraoxo-1,4,7,10-tetraazacyclotetradecan-12-yl)isobutyramide”, the isolated yield under setting [5] is 15%.
For the substance “N-((3R,6S,9S,12R)-6-ethyl-9-(3-guanidinopropyl)-2,5,8,11-tetraoxo-3-phenyl-1,4,7,10-tetraazacyclopentadecan-12-yl)isobutyramide”, under setting [6], the isolated yield was determined as 21.5% yield over 4 steps.
On to “N-((3R,6S,9S,12R)-9-(3-(3-acetylguanidino)propyl)-3-(cyclohexylmethyl)-6-ethyl-12-methyl-2,5,8,11-tetraoxo-1,4,7,10-tetraazacyclotetradecan-12-yl)isobutyramide”, for which the step yield under setting [1] stood at 36%. Under setting [2], the “final purity (method not given)” value was more than 98%.
With “(R)—N-((8S,11S,14R,Z)-11-ethyl-3-(methylamino)-9,12,15-trioxo-14-phenyl-2,4,10,13,16-pentaazanonadeca-2,18-dien-8-yl)-2-isobutyramido-2-methylpent-4-enamide”, the step yield (coupling step, TFA salt) stood at 44% yield.
On to “N-((3R,6S,9S,12R)-3-(cyclohexylmethyl)-6-ethyl-12-methyl-2,5,8,11-tetraoxo-9-(3-(3-propylguanidino)propyl)-1,4,7,10-tetraazacyclotetradecan-12-yl)isobutyramide”, for which the step yield under setting [1] is on record as 80%. Further, the “final purity (method not given)” value under setting [2] is reported as more than 98%.
For “N-((3R,6S,9S,12R)-9-(3-(3-butylguanidino)propyl)-3-(cyclohexylmethyl)-6-ethyl-12-methyl-2,5,8,11-tetraoxo-1,4,7,10-tetraazacyclotetradecan-12-yl)isobutyramide”, the step yield under setting [1] worked out at 66%. For the same substance, the “final purity (method not given)” value under setting [2] is more than 98%.
With “N-((3R,6S,9S,12R)-6-ethyl-9-(3-guanidinopropyl)-12-methyl-2,5,8,11-tetraoxo-3-phenyl-1,4,7,10-tetraazacyclopentadecan-12-yl)isobutyramide”, the isolated yield under setting [6] turned out to be 19.4% yield over 4 steps.
For the substance “(R)—N-((8S,11S,14R,E)-11-ethyl-9,12,15-trioxo-3-(2,2,4,6,7-pentamethyl-2,3-dihydrobenzofuran-5-sulfonamido)-14-phenyl-2,4,10,13,16-pentaazanonadeca-2,18-dien-8-yl)-2-isobutyramido-2-methylpent-4-enamide”, the step yield (coupling step, TFA salt) is listed as 59% yield.
As for “N-((3R,6S,9S,12R)-6-ethyl-9-(3-guanidinopropyl)-12-methyl-3-(naphthalen-2-yl)-2,5,8,11-tetraoxo-1,4,7,10-tetraazacyclotetradecan-12-yl)isobutyramide”, the isolated mass (whole synthesis, TFA salt) amounted to 9 mg. For the same substance, the “final purity (method not given)” value under setting [4] is reported as more than 98%. In addition, the isolated yield under setting [3] came out at 15%.
Take “N-((3R,6S,9S,12R)-6-ethyl-3-(4-fluorophenyl)-9-(3-guanidinopropyl)-12-methyl-2,5,8,11-tetraoxo-1,4,7,10-tetraazacyclotetradecan-12-yl)isobutyramide”: under setting [5], the isolated yield is given as 10%.
For “N-((3R,6S,9S,12R)-6-ethyl-12-methyl-2,5,8,11-tetraoxo-3-phenyl-9-(3-((1,4,5,6-tetrahydropyrimidin-2-yl)amino)propyl)-1,4,7,10-tetraazacyclotetradecan-12-yl)isobutyramide”, under setting [1], the step yield was 65%. Further, the “final purity (method not given)” value under setting [2] is on record as more than 98%.
On to “N-((3R,6S,9S,12R)-3-(cyclohexylmethyl)-9-(3-((5,5-difluoro-1,4,5,6-tetrahydropyrimidin-2-yl)amino)propyl)-6-ethyl-12-methyl-2,5,8,11-tetraoxo-1,4,7,10-tetraazacyclotetradecan-12-yl)isobutyramide”, for which the step yield under setting [1] is recorded as 44%. Further, the “final purity (method not given)” value under setting [2] is recorded as more than 98%.
On to “N-((3R,6S,9S,12R)-3-(cyclohexylmethyl)-6-ethyl-9-(3-guanidinopropyl)-12-methyl-2,5,8,11-tetraoxo-1,4,7,10-tetraazacyclotetradecan-12-yl)isobutyramide”, for which the isolated yield under setting [5] is recorded as 34%.
Consider “N-((3R,6S,9S,12R)-3-(cyclohexylmethyl)-6-ethyl-12-methyl-2,5,8,11-tetraoxo-9-(3-((1,4,5,6-tetrahydropyrimidin-2-yl)amino)propyl)-1,4,7,10-tetraazacyclotetradecan-12-yl)isobutyramide”, for which, under setting [1], the step yield was 50%. Further, under setting [2], the “final purity (method not given)” value is more than 98%.
“N-((3R,6S,12R)-9-(3-amino-3-oxopropyl)-6-ethyl-12-methyl-2,5,8,11-tetraoxo-3-phenyl-1,4,7,10-tetraazacyclotetradecan-12-yl)isobutyramide”: for the setting “whole synthesis, TFA salt”, the isolated mass stood at 8.8 mg. Moreover, under setting [4], the “final purity (method not given)” value is on record as more than 98% purity. Under “whole synthesis, over 3 steps, scale of the general procedure 0.1 mmol, TFA salt”, the isolated yield is listed as 17% yield over 3 steps.

For the origin of these results see patent US20210130401A1 (THE REGENTS OF THE UNIVERSITY OF MICHIGAN, priority 2017, published 2021).
